Assay results from article PMC2614481.
Results are given in words; binding and its absence hold for the method and conditions named. In cells and extracts the contact can be indirect. A yes stands for co-enrichment or nearness to the bait. Other partners may have been found.

The chains behind the UniProt entries cited, without tags or fusion partners.
UniProt Q9HFE8: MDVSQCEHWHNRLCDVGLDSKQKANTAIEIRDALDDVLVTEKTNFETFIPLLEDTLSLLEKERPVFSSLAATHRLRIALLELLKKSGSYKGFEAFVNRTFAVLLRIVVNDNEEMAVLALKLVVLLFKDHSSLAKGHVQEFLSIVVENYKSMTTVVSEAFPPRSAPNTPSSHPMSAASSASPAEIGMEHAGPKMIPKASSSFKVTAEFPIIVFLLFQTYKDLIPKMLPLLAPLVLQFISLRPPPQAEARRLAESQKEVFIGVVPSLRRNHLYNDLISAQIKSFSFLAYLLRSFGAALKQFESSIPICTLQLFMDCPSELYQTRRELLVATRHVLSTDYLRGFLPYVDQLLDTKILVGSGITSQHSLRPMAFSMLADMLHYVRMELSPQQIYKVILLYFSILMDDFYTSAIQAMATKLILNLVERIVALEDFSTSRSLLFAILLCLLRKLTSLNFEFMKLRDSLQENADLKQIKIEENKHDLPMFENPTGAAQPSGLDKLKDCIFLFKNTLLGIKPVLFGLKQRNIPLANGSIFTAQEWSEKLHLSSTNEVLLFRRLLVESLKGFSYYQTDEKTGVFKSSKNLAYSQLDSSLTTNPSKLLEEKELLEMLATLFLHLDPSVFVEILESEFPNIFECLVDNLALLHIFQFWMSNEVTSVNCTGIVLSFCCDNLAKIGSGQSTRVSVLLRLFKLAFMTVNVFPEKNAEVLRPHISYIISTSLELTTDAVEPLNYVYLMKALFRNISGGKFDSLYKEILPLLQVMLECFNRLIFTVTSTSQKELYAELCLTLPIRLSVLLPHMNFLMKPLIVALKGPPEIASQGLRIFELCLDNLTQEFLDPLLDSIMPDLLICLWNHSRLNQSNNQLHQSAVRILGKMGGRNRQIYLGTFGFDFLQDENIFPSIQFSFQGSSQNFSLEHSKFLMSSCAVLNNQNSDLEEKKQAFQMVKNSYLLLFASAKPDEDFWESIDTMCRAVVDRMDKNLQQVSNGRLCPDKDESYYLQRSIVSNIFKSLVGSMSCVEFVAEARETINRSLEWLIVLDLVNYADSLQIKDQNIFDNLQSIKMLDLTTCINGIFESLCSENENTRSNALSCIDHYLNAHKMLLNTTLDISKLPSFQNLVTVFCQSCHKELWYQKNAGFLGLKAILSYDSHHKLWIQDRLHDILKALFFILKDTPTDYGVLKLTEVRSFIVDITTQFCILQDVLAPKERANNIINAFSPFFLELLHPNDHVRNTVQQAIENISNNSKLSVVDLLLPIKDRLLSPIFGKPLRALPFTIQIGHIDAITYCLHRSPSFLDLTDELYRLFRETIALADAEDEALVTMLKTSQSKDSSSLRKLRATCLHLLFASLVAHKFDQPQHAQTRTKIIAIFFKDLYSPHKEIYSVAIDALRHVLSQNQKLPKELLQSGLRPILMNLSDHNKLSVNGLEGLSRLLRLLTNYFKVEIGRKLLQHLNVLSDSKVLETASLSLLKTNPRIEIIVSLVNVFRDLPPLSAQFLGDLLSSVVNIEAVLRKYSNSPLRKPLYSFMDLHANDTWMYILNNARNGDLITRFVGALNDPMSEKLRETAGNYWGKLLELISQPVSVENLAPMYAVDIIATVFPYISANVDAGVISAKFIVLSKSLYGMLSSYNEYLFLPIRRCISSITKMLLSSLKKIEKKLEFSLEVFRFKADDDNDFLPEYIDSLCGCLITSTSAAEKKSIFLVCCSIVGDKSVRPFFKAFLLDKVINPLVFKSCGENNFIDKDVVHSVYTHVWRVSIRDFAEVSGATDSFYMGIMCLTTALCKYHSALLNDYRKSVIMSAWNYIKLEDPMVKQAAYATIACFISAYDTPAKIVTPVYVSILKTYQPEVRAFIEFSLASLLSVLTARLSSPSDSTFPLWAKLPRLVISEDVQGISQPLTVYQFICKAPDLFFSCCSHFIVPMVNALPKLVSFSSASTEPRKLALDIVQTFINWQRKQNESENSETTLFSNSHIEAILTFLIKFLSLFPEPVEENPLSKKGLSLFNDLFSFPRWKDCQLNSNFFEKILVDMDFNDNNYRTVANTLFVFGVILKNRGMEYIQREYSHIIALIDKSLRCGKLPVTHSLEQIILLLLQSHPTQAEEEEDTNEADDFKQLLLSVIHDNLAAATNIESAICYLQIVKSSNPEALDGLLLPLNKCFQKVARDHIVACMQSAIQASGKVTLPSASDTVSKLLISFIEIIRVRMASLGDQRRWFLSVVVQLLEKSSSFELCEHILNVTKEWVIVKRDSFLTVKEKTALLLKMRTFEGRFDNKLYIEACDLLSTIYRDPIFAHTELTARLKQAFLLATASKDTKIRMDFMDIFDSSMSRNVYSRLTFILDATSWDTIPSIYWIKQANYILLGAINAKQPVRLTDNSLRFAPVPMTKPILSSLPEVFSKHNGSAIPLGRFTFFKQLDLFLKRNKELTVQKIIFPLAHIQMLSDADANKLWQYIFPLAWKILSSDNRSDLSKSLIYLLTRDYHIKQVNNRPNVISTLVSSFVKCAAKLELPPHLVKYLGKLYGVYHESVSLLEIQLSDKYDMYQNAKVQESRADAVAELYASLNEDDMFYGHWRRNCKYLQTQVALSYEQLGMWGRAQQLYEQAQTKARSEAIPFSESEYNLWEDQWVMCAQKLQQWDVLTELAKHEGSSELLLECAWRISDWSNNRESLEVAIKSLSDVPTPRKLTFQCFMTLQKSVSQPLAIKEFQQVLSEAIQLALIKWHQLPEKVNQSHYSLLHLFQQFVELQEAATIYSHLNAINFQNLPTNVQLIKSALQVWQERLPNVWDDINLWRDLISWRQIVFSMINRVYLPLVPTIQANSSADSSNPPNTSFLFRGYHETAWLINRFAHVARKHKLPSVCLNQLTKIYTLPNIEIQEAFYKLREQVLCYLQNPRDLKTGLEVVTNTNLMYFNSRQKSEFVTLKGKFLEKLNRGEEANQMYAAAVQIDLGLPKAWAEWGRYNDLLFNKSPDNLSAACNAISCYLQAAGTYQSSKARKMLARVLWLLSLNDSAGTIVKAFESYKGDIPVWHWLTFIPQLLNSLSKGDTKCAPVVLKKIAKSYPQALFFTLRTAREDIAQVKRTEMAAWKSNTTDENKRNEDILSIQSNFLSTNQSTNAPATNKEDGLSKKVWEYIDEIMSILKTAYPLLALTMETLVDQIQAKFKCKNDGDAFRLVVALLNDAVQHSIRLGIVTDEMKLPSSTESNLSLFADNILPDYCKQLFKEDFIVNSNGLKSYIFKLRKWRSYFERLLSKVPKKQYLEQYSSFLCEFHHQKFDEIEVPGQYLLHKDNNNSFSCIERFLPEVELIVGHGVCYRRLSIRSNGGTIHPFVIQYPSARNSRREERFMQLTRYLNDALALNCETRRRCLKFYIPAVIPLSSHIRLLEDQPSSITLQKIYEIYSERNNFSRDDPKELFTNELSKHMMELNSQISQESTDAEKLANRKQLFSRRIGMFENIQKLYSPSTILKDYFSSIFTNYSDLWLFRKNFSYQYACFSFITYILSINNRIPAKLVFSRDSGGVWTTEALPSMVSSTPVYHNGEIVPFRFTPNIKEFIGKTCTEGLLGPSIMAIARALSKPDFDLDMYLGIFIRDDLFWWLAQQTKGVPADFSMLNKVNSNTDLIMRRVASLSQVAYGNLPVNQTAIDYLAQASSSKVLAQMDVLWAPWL
UniProt Q9C0X6: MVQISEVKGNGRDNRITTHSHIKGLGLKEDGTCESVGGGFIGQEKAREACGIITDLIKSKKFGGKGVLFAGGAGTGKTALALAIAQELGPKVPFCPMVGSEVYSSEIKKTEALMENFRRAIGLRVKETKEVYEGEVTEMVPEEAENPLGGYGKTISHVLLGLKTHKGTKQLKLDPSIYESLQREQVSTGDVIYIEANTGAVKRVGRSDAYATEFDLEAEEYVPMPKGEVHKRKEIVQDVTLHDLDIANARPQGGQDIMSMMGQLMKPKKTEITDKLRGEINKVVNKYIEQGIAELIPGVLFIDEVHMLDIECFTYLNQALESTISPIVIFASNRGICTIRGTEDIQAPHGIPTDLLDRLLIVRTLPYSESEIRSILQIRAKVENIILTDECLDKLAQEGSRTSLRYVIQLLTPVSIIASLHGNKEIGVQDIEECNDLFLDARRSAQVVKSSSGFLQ

T1: SWC4 (S. pombe) (S. pombe) (UniProt O14308)
T1 sequence: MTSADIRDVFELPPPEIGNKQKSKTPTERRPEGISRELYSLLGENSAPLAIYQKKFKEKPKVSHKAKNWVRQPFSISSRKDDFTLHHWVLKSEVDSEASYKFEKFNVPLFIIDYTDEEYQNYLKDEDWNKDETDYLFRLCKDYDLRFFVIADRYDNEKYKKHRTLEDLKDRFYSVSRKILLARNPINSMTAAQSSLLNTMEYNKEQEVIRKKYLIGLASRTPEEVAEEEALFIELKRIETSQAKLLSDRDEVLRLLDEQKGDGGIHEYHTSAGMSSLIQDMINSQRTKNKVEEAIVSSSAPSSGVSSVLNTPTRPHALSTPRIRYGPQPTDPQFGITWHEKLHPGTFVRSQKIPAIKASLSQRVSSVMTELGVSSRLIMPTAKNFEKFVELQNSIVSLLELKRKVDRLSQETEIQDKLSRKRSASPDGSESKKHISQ

T2: YAF9 (S. pombe) (S. pombe) (UniProt Q10319)
T2 sequence: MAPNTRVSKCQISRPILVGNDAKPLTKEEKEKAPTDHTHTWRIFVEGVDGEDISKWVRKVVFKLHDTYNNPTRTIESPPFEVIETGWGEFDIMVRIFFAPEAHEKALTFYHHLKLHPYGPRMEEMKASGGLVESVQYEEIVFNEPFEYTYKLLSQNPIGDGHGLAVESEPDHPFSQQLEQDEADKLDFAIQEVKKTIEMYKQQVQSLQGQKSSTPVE

T3: Sc_Tos4p (S. cerevisiae) (UniProt Q06266)
T3 sequence: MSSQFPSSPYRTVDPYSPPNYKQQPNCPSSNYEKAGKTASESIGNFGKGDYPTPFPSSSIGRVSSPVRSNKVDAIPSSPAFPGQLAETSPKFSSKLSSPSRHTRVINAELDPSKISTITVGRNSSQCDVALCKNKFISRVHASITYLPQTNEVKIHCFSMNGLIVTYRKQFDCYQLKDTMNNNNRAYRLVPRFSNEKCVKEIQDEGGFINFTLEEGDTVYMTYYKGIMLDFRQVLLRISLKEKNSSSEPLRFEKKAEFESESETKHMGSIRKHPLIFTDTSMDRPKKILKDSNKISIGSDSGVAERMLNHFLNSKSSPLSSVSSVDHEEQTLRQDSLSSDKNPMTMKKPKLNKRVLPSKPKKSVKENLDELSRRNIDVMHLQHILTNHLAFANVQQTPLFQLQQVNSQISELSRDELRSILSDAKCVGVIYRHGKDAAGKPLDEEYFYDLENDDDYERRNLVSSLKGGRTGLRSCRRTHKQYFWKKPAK


Legend:
[1] = biological target: T1, SWC4 (S. pombe) (S. pombe); experiment: affinity purification with mass spectrometry; TAP of baits TAP-tagged at their genes from S. pombe extracts; eluates on 6-18% gels, Coomassie, bands and slices identified by MALDI peptide mapping and LC-MS/MS; common background removed, A-index cut-off 1.75
[2] = biological target: T2, YAF9 (S. pombe) (S. pombe); experiment: as above
[3] = biological target: Tra1 (S. pombe) (S. pombe) (UniProt Q9HFE8); experiment: as above
[4] = biological target: RVB1 (S. pombe) (S. pombe) (UniProt Q9C0X6); experiment: as above
Sc_Tos4p (S. cerevisiae) = biological target: T3, Sc_Tos4p (S. cerevisiae); experiment: affinity purification with mass spectrometry; TAP of baits TAP-tagged at their genes from S. cerevisiae extracts; eluates on 6-18% gels, Coomassie, bands and slices identified by MALDI peptide mapping and LC-MS/MS; common background removed, A-index cut-off 1.75

| Binder | binding [3] | binding (Sc_Tos4p (S. cerevisiae)) | further results |
| --- | --- | --- | --- |
| RVB2 (S. pombe) (protein, UniProt O94692 1-465) MSISVTSHNDVSKLERIGAHSHIKGIGLNDNLEPKESSQGMVGQVKARRAAGVILKMIQEGRIAGRAILMAGPPSTGKTAIAMGMAQSLGSDTPFVTLSASEVYSLEMSKTEALLQALRKSIGVRIKEETEIIEGEVVEVQIDRSITGGNKQGKLTIRSTDMETVYDLGTKMIDSLTKEKVLAGDVISIDKSVGRVTKLGRSFSRARDYDAMGADTRFVQCPQGEIQKRKEVVHTVSLHDIDVINSRTQGFLALFSGDTGEIKPEVREQINTKVSEWREEGKAEIVPGVLFVDEVHMLDIECFSFFNRALEDDLAPIVIMASNRGITRIRGTNYRSPHGIPVDLLDRMLIISTLPYSHEEVKEILKIRCQEEDVDMEPSALDYLSTIGQETSLRYALLLISSSNQVALKRKSATIEESDIRRVYELFLDQKRSVEYLEEYGKNYITENEWSASGAQDNAVAMQED | binds |  | binding [1]: binds; binding [2]: binds |
| ASA1 (S. pombe) (protein, UniProt Q9UTR9 1-368) MVVPTPFYVLRGHSSSVTSVLFDANEYLYSGDEAGFVICWCLTSMRPKCAWRAHTKTILGMQIVKGGALCTHGRDCRLVTWKIDFNCMTDNFMSLSKLAELQNYGPEASSETEKSSAFISIHSNIVVNSLTFCPFSYSPQSKIVVLCNTLNFEELDVYDDESLYHPQTHKEDCGKRLQTRIQPEESVGKTGSVMSTSVTVTDEKYVLLAAGYESGHVVQYICSLENVKTVTLDFKAVWKMVYAYKSHSQPVLSVEYAGSKLFSTGADDCICLHPTPSSIADDLGSLPHPIFRKTKHCGQQNIRIRSDNKILATAGWDGRGRVYSCQTLAPLAVLKYHSDGINSLAFHPGSNVIALASKDTRISLWKLY | binds |  | binding [4]: binds |
| TTI2 (S. pombe) (protein, UniProt O94729 1-467) MQYYKELARRLHTLQSKNEKEALEKQIDFLDKLVVEVDSLVHEQDLRPLLEFISPTESWFLLGTATIFYIKLLTHPDPESIDVVIKEAYVVRAHRILSIFQEQFIENVVKEINWEILAILISLSGIENGLVRNLSEFLSTSILSAVPRQKFLLYLLEKYQINLFHREERLTDQGRPVAFELPPDKFHSDQSKALLEPKWKTKNYLISHLIFWIIDQQSSSSIEVCWHRIIPSVLRILNDLSPNIKLQGIELVNRLLKITEREFLLYTGILKILKDDLLVFYTFIPPRFTIQTSVTLINASFATLVSLYPEENENLNSIMLNGINSVFQFAFDYPLILQAAFSQIMVLTDKMNVSYLPYLTLTLDELCRIIQNPQIIQIPSTLSFFLEILTKLLEIYSYRISAHHVELLMALVVCSRNYMRCNLQEHHNAIVQALQNLFTLIKLNITVEQLGDYNVILPLLEPLQIPL | binds |  |  |
| SNT1 (S. cerevisiae) (protein, UniProt P25357 1-1226) MGYPPPTRRLGDKKRYHYSNNPNRRHPSAVYSKNSFPKSSNNGFVSSPTADNSTNPSVTPSTASVPLPTAAPGSTFGIEAPRPSRYDPSSVSRPSSSSYSSTRKIGSRYNPDVERSSSTTSSTPESMNTSTITHTNTDIGNSRYSRKTMSRYNPQSTSSTNVTHFPSALSNAPPFYVANGSSRRPRSMDDYSPDVTNKLETNNVSSVNNNSPHSYYSRSNKWRSIGTPSRPPFDNHVGNMTTTSNTNSIHQREPFWKANSTTILKSTHSQSSPSLHTKKFHDANKLDKPEASVKVETPSKDETKAISYHDNNFPPRKSVSKPNAPLEPDNIKVGEEDALGKKEVHKSGREIAKEHPTPVKMKEHDELEARAKKVSKINIDGKQDEIWTTAKTVASAVEVSKESQKELTRSVERKESPEIRDYERAYDPKALKTDVTKLTVDNDNKSYEEPLEKVEGCIFPLPKAETRLWELKNQKRNKIISEQKYLLKKAIRNFSEYPFYAQNKLIHQQATGLILTKIISKIKKEEHLKKINLKHDYFDLQKKYEKECEILTKLSENLRKEEIENKRKEHELMEQKRREEGIETEKEKSLRHPSSSSSSRRRNRADFVDDAEMENVLLQIDPNYKHYQAAATIPPLILDPIRKHSYKFCDVNNLVTDKKLWASRILKDASDNFTDHEHSLFLEGYLIHPKKFGKISHYMGGLRSPEECVLHYYRTKKTVNYKQLLIDKNKKRKMSAAAKRRKRKERSNDEEVEVDESKEESTNTIEKEEKSENNAEENVQPVLVQGSEVKGDPLGTPEKVENMIEQRGEEFAGELENAERVNDLKRAHDEVGEESNKSSVIETNNGVQIMDPKGAVQNGYYPEETKELDFSLENALQRKKHKSAPEHKTSYWSVRESQLFPELLKEFGSQWSLISEKLGTKSTTMVRNYYQRNAARNGWKLLVDETDLKRDGTSSESVQQSQILIQPERPNINAYSNIPPQQRPALGYFVGQPTHGHNTSISSIDGSIRPFGPDFHRDTFSKISAPLTTLPPPRLPSIQFPRSEMAEPTVTDLRNRPLDHIDTLADAASSVTNNQNFSNERNAIDIGRKSTTISNLLNNSDRSMKSSFQSASRHEAQLEDTPSMNNIVVQEIKPNITTPRSSSISALLNPVNGNGQSNPDGRPLLPFQHAISQGTPTFPLPAPRTSPISRAPPKFNFSNDPLAALAAVASAPDAMSSFLSKKENNN |  | binds |  |
| Sc_Hos2 (protein, UniProt P53096 1-452) MSGTFSYDVKTKENEPLFEFNSAYSPRVSYHFNSKVSHYHYGVKHPMKPFRLMLTDHLVSSYGLHKIMDLYETRSATRDELLQFHSEDYVNFLSKVSPENANKLPRGTLENFNIGDDCPIFQNLYDYTTLYTGASLDATRKLINNQSDIAINWSGGLHHAKKNSPSGFCYVNDIVLSILNLLRYHPRILYIDIDLHHGDGVQEAFYTTDRVFTLSFHKYNGEFFPGTGDLTEIGCDKGKHFALNVPLEDGIDDDSYINLFKSIVDPLIMTFKPTLIVQQCGADSLGHDRLGCFNLNIKAHGECVKFVKSFGLPMLVVGGGGYTPRNVSRLWTYETGILNDVLLPEDIPEDIPFRDSFGPDYSLYPMLDDLYENKNSKKLLEDIRIRCLENIRYLQGAPSVRMDAECIPTQDISALTEEEDKIIQEMNEETEADSSNRLEEMEKENSGLIAFS |  | binds |  |
| Sc_Sif2 (protein, UniProt P38262 1-535) MSITSEELNYLIWRYCQEMGHEVSALALQDETRVLEFDEKYKEHIPLGTLVNLVQRGILYTESELMVDSKGDISALNEHHLSEDFNLVQALQIDKEKFPEISSEGRFTLETNSESNKAGEDGASTVERETQEDDTNSIDSSDDLDGFVKILKEIVKLDNIVSSTWNPLDESILAYGEKNSVARLARIVETDQEGKKYWKLTIIAELRHPFALSASSGKTTNQVTCLAWSHDGNSIVTGVENGELRLWNKTGALLNVLNFHRAPIVSVKWNKDGTHIISMDVENVTILWNVISGTVMQHFELKETGGSSINAENHSGDGSLGVDVEWVDDDKFVIPGPKGAIFVYQITEKTPTGKLIGHHGPISVLEFNDTNKLLLSASDDGTLRIWHGGNGNSQNCFYGHSQSIVSASWVGDDKVISCSMDGSVRLWSLKQNTLLALSIVDGVPIFAGRISQDGQKYAVAFMDGQVNVYDLKKLNSKSRSLYGNRDGILNPLPIPLYASYQSSQDNDYIFDLSWNCAGNKISVAYSLQEGSVVAI |  | binds |  |
| Sc_Set3 (protein, UniProt P36124 1-751) MSVPNSKEQSLLDDASTLLLFSKGKKRAEEASKIGSKTDTIEHDESHEREKKGAIEMAAAALATASTVSLPLKKATEQSAAEAATSTAAKEETENQPQKQPQWPVPDSYIVDPDAGIITCICDLNDDDGFTIQCDHCNRWQHAICYGIKDIGMAPDDYLCNSCDPREVDINLARKIQQERINVKTVEPSSSNNSASNKNNGRDRASSTTISDVGDSFSTDQDNTNHRDKRRKRNPSNNSIDSKNESASVNSSDGLTSMPKKKEHFLSAKDAYGAIYLPLKDNVFKSDLIEPFLNKHMDDNWVIQYPHKTFKSVSIEVKPYADIAYSRTYPGFTKLGVYLKKDCIKGDFIQEILGELDFYKNYLTDPRNHYRIWGTAKRRVIFHSHWPIYIDARLSGNSTRYLRRSCQPNVELVTIKLQDTDNRNDKSSGRKSSRIKFVLRALRDISEDEELYIKWQWDSKHPILKLIKGMTIDSLDDLERYGLINSVETILSNGECGCGNNSKDCYLLKVKRYAQSLYKSVKSRGKMNNRYKLNEILNQYNCKKRREPPILHRLEEKAQNTIERAPILLNNFYRQKFLNRNNGPKIPQKNTIDSTNNPDDIAKPFKFALFAQHSSNISVPKKNETSEKPLIITKSTDYDESHITNIEELPIPVLLPINKTSRQTANDVEESQSKNEHKLSRTPSLSNFNKELSKEAQHSQAKTKEIMTEASVNSRRESTPESIMHLSDFSSSQLHSKKKLSFADYRKKLLK |  | binds |  |
